Among the data in PubChem BioAssay AID248 (DTP/NCI, 2004) are survivor count and T/C values, retold here.

The list does not hold the whole screen: it gathers tests that were run many times, whatever their T/C, doses with no T/C, and many T/C values between a quarter and a half above the control. Other doses and runs of a compound stand elsewhere. T/C is the treated group as % of the vehicle group. Some entries give survivors of the animals treated and no T/C: the source files T/C as zero there, which appears to mark a toxic dose or a test without result, not a measured value. Some doses without a T/C left all or most animals alive at the check, yet need not have been tolerated: the source hardly ever lists a survival T/C far under the control, and the zero likely stands for such cases as well. Counts of survivors are from the toxicity check (mostly the fifth day) where no day follows; animals may have died later. Schedule codes are those of the source, read here as Q, the interval in days (D) or hours (H), X, the number of doses. Some schedules carry Z or #; the key to these is not given. Where survival is the endpoint, the PubChem record calls one and a half times the control and up active, and a quarter to a half above the control has no call in these data; cut-offs in other NCI protocols can differ. Some T/C values are followed by the survivors on the day toxicity was checked, most often the fifth; without a count, all were alive then.

In this assay the test system is L1210 leukemia ip in BDF1 mice, survival T/C. The assay can be described thus: NCI In Vivo Anticancer Drug Screen. Data for tumor model L1210 Leukemia (intraperitoneal) in B6D2F1 (BDF1) mice. The conditions noted are these: T/C endpoint: mean survival time, higher T/C = longer survival.
Setting [1] is: dose: 50.0 mg/kg/injection, schedule: Q01DX009 (ip), vehicle: saline.
Where [2] appears, read: dose: 400.0 mg/kg/injection, schedule: Q04DX003 (ip), vehicle: saline.
The mark [3] stands for this setting: dose: 200.0 mg/kg/injection, schedule: Q04DX002 (ip), vehicle: Klucel (hydroxypropylcellulose) (HPC).
Where [4] appears, read: dose: 400.0 mg/kg/injection, schedule: Q04DX002 (ip), vehicle: Klucel (hydroxypropylcellulose) (HPC).
Setting [5] is: dose: 100.0 mg/kg/injection, schedule: Q04DX002 (ip), vehicle: Klucel (hydroxypropylcellulose) (HPC).
[6] abbreviates: dose: 200.0 mg/kg/injection, schedule: Q01DX001 (ip), vehicle: Klucel (hydroxypropylcellulose) (HPC).
Where [7] appears, read: dose: 400.0 mg/kg/injection, schedule: Q01DX009 (ip), vehicle: saline.
Setting [8] is: dose: 100.0 mg/kg/injection, schedule: Q01DX009 (ip), vehicle: saline with Tween-80.

Turning to `CCN(CCNS(C)(=O)=O)c1ccc(N)c(C)c1`, the survivor count was 5 of 6 (dose: 25.0 mg/kg/injection, schedule: Q01DX009 (ip), vehicle: saline); 0 of 6 under setting [1]; 0 of 6 (dose: 100.0 mg/kg/injection, schedule: Q04DX003 (ip), vehicle: saline); 0 of 6 (dose: 200.0 mg/kg/injection, schedule: Q04DX003 (ip), vehicle: saline); 0 of 6 under setting [2].
`CNC(=O)Oc1ccc2c(C)cc(=O)oc2c1`: the survivor count (dose: 400.0 mg/kg/injection, schedule: Q04DX002 (ip), vehicle: saline) is 2 of 3.
For `O=CC(CO)C(C=O)n1ncc2ccccc21` (centres undefined), the survivor count (dose: 100.0 mg/kg/injection, schedule: Q01DX005 (ip), vehicle: water) is recorded as 0 of 3 and the survivor count (dose: 200.0 mg/kg/injection, schedule: Q01DX005 (ip), vehicle: water) was 0 of 3.
For `CC(=N\N=C(N)N)/C(=N/N=C(N)N)c1ccccc1`, the survivor count is, setting by setting: (dose: 60.0 mg/kg/injection, schedule: Q01DX Z (ip), vehicle: saline) 0 of 6; (dose: 120.0 mg/kg/injection, schedule: Q01DX Z (ip), vehicle: saline) 0 of 6; (dose: 480.0 mg/kg/injection, schedule: Q01DX009 (oral), vehicle: saline) 5 of 6.
Take `NCC12CC3CC(CC(C3)C1)C2`: the survivor count is recorded as 0 of 3 under setting [3] and 0 of 3 under setting [4].
In the case of `NC(CSS(=O)(=O)O)=NCCc1c[nH]c(=S)[nH]1`, the survivor count runs as follows: (dose: 50.0 mg/kg/injection, schedule: Q04DX002 (ip), vehicle: Klucel (hydroxypropylcellulose) (HPC)) 0 of 3; under setting [5], 0 of 3; under setting [3], 0 of 3; under setting [4], 0 of 3.
`C=CC[N+](CC=C)(CC=C)CC[N+](CC=C)(CC=C)CC=C`: the survivor count (dose: 100.0 mg/kg/injection, schedule: Q01DX009 (ip), vehicle: water) is given as 0 of 6; the survivor count (dose: 100.0 mg/kg/injection, schedule: Q04DX003 (ip), vehicle: water) is listed as 5 of 6; the survivor count (dose: 200.0 mg/kg/injection, schedule: Q01DX009 (ip), vehicle: water) is 0 of 6; the survivor count (dose: 200.0 mg/kg/injection, schedule: Q04DX003 (ip), vehicle: water) is recorded as 1 of 6; the survivor count (dose: 400.0 mg/kg/injection, schedule: Q04DX003 (ip), vehicle: water) is reported as 0 of 6.
As for `Cc1c(CCO)sc[n+]1Cc1cccc([N+](=O)[O-])c1`, the survivor count is, setting by setting: (dose: 200.0 mg/kg/injection, schedule: Q01DX001 (ip), vehicle: saline) 0 of 6; (dose: 400.0 mg/kg/injection, schedule: Q01DX001 (ip), vehicle: saline) 0 of 6.
On to `CC(C)=CCC(=O)Oc1ccccc1C(=O)O`, for which, where the note is “dose: 400.0 mg/kg/injection, schedule: Q04DX003 (ip), vehicle: saline with Tween-80”, the survivor count is reported as 3 of 6.
For `CC1CC(C)(C)N/C(=C/C(=O)N2Cc3cc4ccccc4nc3C2)O1` (centres undefined), the survivor count under setting [6] is on record as 6 of 6.
Regarding `O=CNNC(=O)c1cnccn1`, the T/C under setting [7] is 128 % of control [4 of 6 alive]. In addition, the survivor count by setting is: under setting [7], 2 of 6; (dose: 600.0 mg/kg/injection, schedule: Q01DX009 (ip), vehicle: saline) 2 of 6.
Take `OCCCCCCCCCCC[n+]1ccccc1Cc1ccccc1`: the survivor count (dose: 150.0 mg/kg/injection, schedule: Q01DX001 (ip), vehicle: Klucel (hydroxypropylcellulose) (HPC)) was 0 of 6 and the survivor count (dose: 300.0 mg/kg/injection, schedule: Q01DX001 (ip), vehicle: Klucel (hydroxypropylcellulose) (HPC)) is listed as 0 of 6.
Regarding `[CH3][Sn]([CH3])([Br])[CH2]CCBr`, the survivor count runs as follows: (dose: 0.39 mg/kg/injection, schedule: Q01DX009 (ip), vehicle: saline) 3 of 3; under setting [1], 0 of 3; (dose: 100.0 mg/kg/injection, schedule: Q01DX009 (ip), vehicle: saline) 0 of 3; (dose: 200.0 mg/kg/injection, schedule: Q01DX009 (ip), vehicle: saline) 0 of 3.
`O=C(/C=C/C=C/c1ccccc1)c1ccc(Cl)cc1`: the T/C (dose: 200.0 mg/kg/injection, schedule: Q04DX003 (ip), vehicle: saline with Tween-80) was 125 % of control.
As to `Cc1c(C(=O)O)nnn1/C=C/c1ccccc1`, the survivor count (dose: 400.0 mg/kg/injection, schedule: Q04DX003 (ip), vehicle: acetone) is given as 4 of 6.
`CSc1ncnc2c1nc[n]2[Sn]([c]1ccccc1)([c]1ccccc1)[c]1ccccc1.CSc1ncnc2nc[nH]c12`: the survivor count (dose: 40.0 mg/kg/injection, schedule: Q01DX001 (ip), vehicle: other) is 3 of 6; the survivor count (dose: 80.0 mg/kg/injection, schedule: Q01DX001 (ip), vehicle: other) is 3 of 6; the survivor count (dose: 100.0 mg/kg/injection, schedule: Q01DX001 (ip), vehicle: other) is reported as 1 of 6; the survivor count (dose: 200.0 mg/kg/injection, schedule: Q01DX001 (ip), vehicle: other) is recorded as 0 of 6; the survivor count (dose: 400.0 mg/kg/injection, schedule: Q01DX001 (ip), vehicle: other) is on record as 0 of 6.
With `CCOC(C)(NCc1ccccc1)OCC`, the survivor count under setting [5] is 0 of 3.
Regarding `Brc1ncnc2nc[nH]c12`, the T/C was 128 % of control (dose: 150.0 mg/kg/injection, schedule: Q01DX Z (ip), vehicle: carboxymethylcellulose (CMC)); 137 % of control (dose: 250.0 mg/kg/injection, schedule: Q01DX Z (ip), vehicle: carboxymethylcellulose (CMC)); 129 % of control (dose: 300.0 mg/kg/injection, schedule: Q01DX Z (ip), vehicle: carboxymethylcellulose (CMC)); 125 % of control (dose: 500.0 mg/kg/injection, schedule: Q01DX Z (ip), vehicle: carboxymethylcellulose (CMC)). Also, for the setting “dose: 600.0 mg/kg/injection, schedule: Q01DX Z (ip), vehicle: carboxymethylcellulose (CMC)”, the survivor count was 3 of 6.
As for `CCN(CC)Cc1ncccc1O`, where the note is “dose: 400.0 mg/kg/injection, schedule: Q04DX003 (ip), vehicle: Klucel (hydroxypropylcellulose) (HPC)”, the survivor count is recorded as 0 of 6.
In the case of `CSc1nncc(-c2ccccc2)n1`, the survivor count reads like this: under setting [6], 3 of 6; (dose: 400.0 mg/kg/injection, schedule: Q01DX001 (ip), vehicle: Klucel (hydroxypropylcellulose) (HPC)) 0 of 6.
On to `[O-]/[N+](=N/O)c1ccc(Cl)cc1`, for which the survivor count runs as follows: (dose: 100.0 mg/kg/injection, schedule: Q01DX001 (ip), vehicle: saline with Tween-80) 3 of 6; under setting [8], 0 of 6; (dose: 200.0 mg/kg/injection, schedule: Q01DX001 (ip), vehicle: saline with Tween-80) 0 of 6; (dose: 400.0 mg/kg/injection, schedule: Q01DX001 (ip), vehicle: saline with Tween-80) 0 of 6.
Turning to `CCCNc1ccc(S(=O)(=O)c2ccc(N)cc2)cc1`, the survivor count is reported as 6 of 6 under setting [8]; 6 of 6 (dose: 200.0 mg/kg/injection, schedule: Q01DX009 (ip), vehicle: saline with Tween-80); 6 of 6 (dose: 400.0 mg/kg/injection, schedule: Q01DX009 (ip), vehicle: saline with Tween-80).
With `CC(=O)/C=C(/C)O`, the survivor count under setting [2] is on record as 6 of 6.
